Results taken from article PMC6370856, “Peptidyl prolyl cis/trans isomerase activity on the cell surface correlates with extracellular matrix development” (Communications Biology, 2019).

System: collagen hydrogel (Type I, rat-tail)
Assay: Step-strain rheological measurement, self-healing of collagen hydrogel
Conditions: 9 micromolar CypA
Method: Another important feature of the dynamic ECMs is their self-healing property, which can be tested using a step-strain rheological measurement. A strong strain is applied to liquify the materials, and the recovery of storage modulus is followed (self-healing) (Fig. 1b). Collagen hydrogel can only partially recover its storage modulus after the first cycle. The rate and extent of recovery were unchanged over the following cycles.
To minimize sample evaporation at 37 °C, a tissue paper wet in HEPEs buffer (10 mM, pH 7.8) was placed inside the H-PTD chamber to increase the humidity. […] The cone and plate were treated with plasma for 5 min to increase the hydrophilicity of the metal surface.

CypA: recombinant cyclophilin A, a PPIase, expressed in E. coli
Storage Modulus, Mean (Time 72.33 min): 5.731 Pa | Storage Modulus, Mean (Time 72.83 min): 5.662 Pa | Storage Modulus, Mean (Time 73.33 min): 5.397 Pa | Storage Modulus, Mean (Time 73.83 min): 5.502 Pa | Storage Modulus, Mean (Time 74.33 min): 6.029 Pa | Storage Modulus, Mean (Time 74.83 min): 5.5133 Pa | Storage Modulus, Mean (Time 75.33 min): 5.709 Pa | Storage Modulus, Mean (Time 75.83 min): 5.4702 Pa | Storage Modulus, Mean (Time 76.33 min): 5.469 Pa | Storage Modulus, Mean (Time 76.83 min): 5.814 Pa | Storage Modulus, Mean (Time 77.33 min): 5.604 Pa | Storage Modulus, Mean (Time 77.83 min): 6.148 Pa | Storage Modulus, Mean (Time 78.33 min): 6.016 Pa | Storage Modulus, Mean (Time 78.83 min): 5.471 Pa | Storage Modulus, Mean (Time 79.33 min): 5.868 Pa | Storage Modulus, Mean (Time 79.83 min): 5.184 Pa | Storage Modulus, Mean (Time 80.33 min): 5.805 Pa | Storage Modulus, Mean (Time 80.83 min): 5.927 Pa | Storage Modulus, Mean (Time 81.33 min): 5.574 Pa | Storage Modulus, Mean (Time 81.83 min): 5.824 Pa | Storage Modulus, Mean (Time 82.33 min): 5.448 Pa | Storage Modulus, Mean (Time 82.83 min): 5.786 Pa | Storage Modulus, Mean (Time 83.33 min): 6.517 Pa | Storage Modulus, Mean (Time 83.83 min): 6.291 Pa | Storage Modulus, Mean (Time 84.33 min): 6.291 Pa | Storage Modulus, Mean (Time 84.83 min): 6.753 Pa | Storage Modulus, Mean (Time 85.33 min): 6.207 Pa | Storage Modulus, Mean (Time 85.83 min): 6.301 Pa | Storage Modulus, Mean (Time 86.33 min): 5.551 Pa | Storage Modulus, Mean (Time 86.83 min): 5.784 Pa | Storage Modulus, Mean (Time 87.33 min): 6.331 Pa | Storage Modulus, Mean (Time 87.83 min): 5.95 Pa | Storage Modulus, Mean (Time 88.33 min): 6.316 Pa | Storage Modulus, Mean (Time 88.83 min): 6.454 Pa | Storage Modulus, Mean (Time 89.33 min): 6.511 Pa | Storage Modulus, Mean (Time 89.83 min): 6.248 Pa | Storage Modulus, Mean (Time 90.33 min): 6.728 Pa | Storage Modulus, Mean (Time 90.83 min): 6.803 Pa | Storage Modulus, Mean (Time 91.33 min): 6.7746 Pa | Storage Modulus, Mean (Time 91.83 min): 6.465 Pa | Storage Modulus, Mean (Time 92.33 min): 6.684 Pa | Storage Modulus, Mean (Time 92.83 min): 6.241 Pa | Storage Modulus, Mean (Time 93.33 min): 6.678 Pa | Storage Modulus, Mean (Time 93.5 min): 1.043 Pa | Storage Modulus, Mean (Time 93.67 min): 0.9944 Pa | Storage Modulus, Mean (Time 93.83 min): 0.9371 Pa | Storage Modulus, Mean (Time 94 min): 0.9099 Pa | Storage Modulus, Mean (Time 94.17 min): 0.888 Pa | Storage Modulus, Mean (Time 94.33 min): 0.869 Pa | Storage Modulus, Mean (Time 94.5 min): 0.8565 Pa | Storage Modulus, Mean (Time 94.67 min): 0.8445 Pa | Storage Modulus, Mean (Time 94.83 min): 0.8347 Pa | Storage Modulus, Mean (Time 95 min): 0.8256 Pa | Storage Modulus, Mean (Time 95.5 min): 3.371 Pa | Storage Modulus, Mean (Time 96 min): 4.81 Pa | Storage Modulus, Mean (Time 96.5 min): 4.105 Pa | Storage Modulus, Mean (Time 97 min): 4.77 Pa | Storage Modulus, Mean (Time 97.5 min): 4.5639 Pa | Storage Modulus, Mean (Time 98 min): 4.981 Pa | Storage Modulus, Mean (Time 98.5 min): 4.9588 Pa | Storage Modulus, Mean (Time 99 min): 4.955 Pa | Storage Modulus, Mean (Time 100 min): 5.139 Pa | Storage Modulus, Mean (Time 100.5 min): 4.946 Pa | Storage Modulus, Mean (Time 101.5 min): 5.717 Pa | Storage Modulus, Mean (Time 102.5 min): 5.485 Pa | Storage Modulus, Mean (Time 109.5 min): 4.645 Pa | Storage Modulus, Mean (Time 110 min): 6.2533 Pa | Storage Modulus, Mean (Time 110.5 min): 6.02 Pa | Storage Modulus, Mean (Time 111.5 min): 6.493 Pa | Storage Modulus, Mean (Time 112.5 min): 6.728 Pa | Storage Modulus, Mean (Time 113.5 min): 7.172 Pa | Storage Modulus, Mean (Time 114 min): 6.039 Pa | Storage Modulus, Mean (Time 114.5 min): 6.304 Pa | Storage Modulus, Mean (Time 118.5 min): 6.899 Pa | Storage Modulus, Mean (Time 119.5 min): 6.055 Pa | Storage Modulus, Mean (Time 120 min): 7.357 Pa | Storage Modulus, Mean (Time 120.5 min): 7.231 Pa | Storage Modulus, Mean (Time 121 min): 6.003 Pa | Storage Modulus, Mean (Time 121.5 min): 6.28 Pa | Storage Modulus, Mean (Time 122.5 min): 6.561 Pa | Storage Modulus, Mean (Time 123.5 min): 5.991 Pa | Storage Modulus, Mean (Time 124 min): 6.359 Pa | Storage Modulus, Mean (Time 124.5 min): 6.061 Pa | Storage Modulus, Mean (Time 125 min): 6.287 Pa | Storage Modulus, Mean (Time 125.17 min): 1.06 Pa | Storage Modulus, Mean (Time 125.33 min): 1.01 Pa | Storage Modulus, Mean (Time 125.5 min): 0.9577 Pa | Storage Modulus, Mean (Time 125.67 min): 0.9388 Pa | Storage Modulus, Mean (Time 125.83 min): 0.9204 Pa | Storage Modulus, Mean (Time 126.17 min): 0.89 Pa | Storage Modulus, Mean (Time 126.33 min): 0.872 Pa | Storage Modulus, Mean (Time 126.67 min): 0.8555 Pa | Storage Modulus, Mean (Time 127.17 min): 3.383 Pa | Storage Modulus, Mean (Time 127.67 min): 4.721 Pa | Storage Modulus, Mean (Time 128.17 min): 4.696 Pa | Storage Modulus, Mean (Time 128.67 min): 4.62 Pa | Storage Modulus, Mean (Time 129.17 min): 5.232 Pa | Storage Modulus, Mean (Time 129.67 min): 5.406 Pa | Storage Modulus, Mean (Time 130.17 min): 5.001 Pa | Storage Modulus, Mean (Time 131.17 min): 5.373 Pa | Storage Modulus, Mean (Time 131.67 min): 5.467 Pa | Storage Modulus, Mean (Time 132.17 min): 5.595 Pa | Storage Modulus, Mean (Time 132.67 min): 5.715 Pa | Storage Modulus, Mean (Time 133.17 min): 5.9 Pa | Storage Modulus, Mean (Time 133.67 min): 4.866 Pa | Storage Modulus, Mean (Time 134.17 min): 5.859 Pa | Storage Modulus, Mean (Time 135.17 min): 5.531 Pa | Storage Modulus, Mean (Time 135.67 min): 5.885 Pa | Storage Modulus, Mean (Time 136.17 min): 5.289 Pa | Storage Modulus, Mean (Time 137.17 min): 5.861 Pa | Storage Modulus, Mean (Time 137.67 min): 6.055 Pa | Storage Modulus, Mean (Time 138.17 min): 7.1716 Pa | Storage Modulus, Mean (Time 138.67 min): 5.642 Pa | Storage Modulus, Mean (Time 139.17 min): 5.563 Pa | Storage Modulus, Mean (Time 139.67 min): 6.086 Pa | Storage Modulus, Mean (Time 140.17 min): 5.581 Pa | Storage Modulus, Mean (Time 140.67 min): 5.997 Pa | Storage Modulus, Mean (Time 141.17 min): 6.697 Pa | Storage Modulus, Mean (Time 141.67 min): 6.504 Pa | Storage Modulus, Mean (Time 142.17 min): 6.313 Pa | Storage Modulus, Mean (Time 142.67 min): 5.125 Pa | Storage Modulus, Mean (Time 143.17 min): 5.799 Pa | Storage Modulus, Mean (Time 143.67 min): 6.439 Pa | Storage Modulus, Mean (Time 144.17 min): 6.161 Pa | Storage Modulus, Mean (Time 144.67 min): 6.36 Pa | Storage Modulus, Mean (Time 145.17 min): 6.452 Pa | Storage Modulus, Mean (Time 145.67 min): 6.29 Pa | Storage Modulus, Mean (Time 146.67 min): 6.852 Pa | Storage Modulus, Mean (Time 147.17 min): 6.716 Pa | Storage Modulus, Mean (Time 147.67 min): 6.279 Pa | Storage Modulus, Mean (Time 148.17 min): 6.399 Pa | Storage Modulus, Mean (Time 148.67 min): 6.131 Pa | Storage Modulus, Mean (Time 149.17 min): 7.082 Pa | Storage Modulus, Mean (Time 149.67 min): 6.553 Pa | Storage Modulus, Mean (Time 150.17 min): 7.343 Pa | Storage Modulus, Mean (Time 150.67 min): 6.787 Pa | Storage Modulus, Mean (Time 151.17 min): 7.29 Pa | Storage Modulus, Mean (Time 151.67 min): 6.95 Pa | Storage Modulus, Mean (Time 152.17 min): 6.459 Pa | Storage Modulus, Mean (Time 152.67 min): 6.8231 Pa | Storage Modulus, Mean (Time 153.17 min): 6.988 Pa | Storage Modulus, Mean (Time 153.67 min): 7.667 Pa | Storage Modulus, Mean (Time 154.17 min): 8.095 Pa | Storage Modulus, Mean (Time 154.67 min): 7.332 Pa | Storage Modulus, Mean (Time 155.17 min): 7.02 Pa | Storage Modulus, Mean (Time 155.67 min): 7.432 Pa | Storage Modulus, Mean (Time 156.17 min): 6.372 Pa | Storage Modulus, Mean (Time 156.67 min): 7.863 Pa
